Laboratory results published in article PMC5586339.
These are yes or no findings as the source states them, for the method shown. In cells and extracts the contact can be indirect. Some binding calls cover weakened binding; strength is not graded here. Each block holds one substance with its values, some of them ahead of it.

Sequences of proteins named here, by UniProt entry; tags and fusion partners are left off. A change or cut given only in a name is not applied to a line headed by its entry. A line that says so, or that is headed by a name, gives the form on record, which may keep a tag or linker. Residues count along the entry.
UniProt Q9CZN4: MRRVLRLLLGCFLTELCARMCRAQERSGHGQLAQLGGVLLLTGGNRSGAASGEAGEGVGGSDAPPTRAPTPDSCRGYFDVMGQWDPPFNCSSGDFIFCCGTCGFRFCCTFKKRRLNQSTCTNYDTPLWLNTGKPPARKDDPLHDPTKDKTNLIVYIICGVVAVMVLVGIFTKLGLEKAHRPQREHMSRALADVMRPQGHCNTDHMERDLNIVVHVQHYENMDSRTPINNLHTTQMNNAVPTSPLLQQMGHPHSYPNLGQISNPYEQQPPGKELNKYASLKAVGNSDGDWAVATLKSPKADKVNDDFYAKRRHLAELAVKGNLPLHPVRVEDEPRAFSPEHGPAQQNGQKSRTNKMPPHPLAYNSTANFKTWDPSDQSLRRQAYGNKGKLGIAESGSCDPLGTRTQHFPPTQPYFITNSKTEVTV
FLAG-tagged full-length Shisa9/CKAMP44: residues 24-424 of Q9CZN4
EGFP-CKAMP44 (cytoplasmic tail, 171-424AA): residues 171-424 of Q9CZN4
EGFP-CKAMP44-ΔC (171-415AA): residues 171-415 of Q9CZN4
EGFP-CKAMP44-ΔNΔC (199-415AA): residues 199-415 of Q9CZN4
UniProt Q9NRD5: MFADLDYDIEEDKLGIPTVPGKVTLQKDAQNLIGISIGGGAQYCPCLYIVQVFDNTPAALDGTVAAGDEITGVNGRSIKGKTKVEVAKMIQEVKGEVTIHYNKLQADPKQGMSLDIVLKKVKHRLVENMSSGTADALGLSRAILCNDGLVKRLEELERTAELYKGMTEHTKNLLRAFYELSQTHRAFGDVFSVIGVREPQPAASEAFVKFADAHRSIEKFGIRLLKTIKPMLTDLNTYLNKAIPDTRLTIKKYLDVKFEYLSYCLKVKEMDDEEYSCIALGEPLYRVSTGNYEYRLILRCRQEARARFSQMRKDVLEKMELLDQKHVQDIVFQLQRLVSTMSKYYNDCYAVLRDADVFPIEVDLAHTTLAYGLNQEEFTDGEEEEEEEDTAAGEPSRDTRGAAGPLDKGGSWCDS

Columns and labels:
[1] = target: FLAG-tagged full-length Shisa9/CKAMP44 (mouse) (UniProt Q9CZN4); assay: co-IP; FLAG-CKAMP44-FL, MYC-PICK1 and EGFP-PKCα-WT expressed together in COS-7; pull-down of FLAG-CKAMP44-FL, mIgG as control; with or without PMA (1 μM, 30 min); WB
[2] = target: MYC-tagged full-length Shisa9/CKAMP44 (mouse) (UniProt Q9CZN4); assay: co-IP; two tagged proteins overexpressed together in COS-7; IP buffer 50 mM Tris pH 7.5, 100 mM NaCl, 0.1-1% Triton-X; 2 μg antibody (FLAG, MYC or GFP; mIgG as control) 3 h at 4 °C, protein-G agarose; WB
[3] = target: EGFP-CKAMP44 (cytoplasmic tail, 171-424AA) (mouse) (UniProt Q9CZN4); assay: as above
[4] = target: EGFP-CKAMP44-ΔC (171-415AA) (mouse) (UniProt Q9CZN4); assay: as above
[5] = target: EGFP-CKAMP44-ΔNΔC (199-415AA) (mouse) (UniProt Q9CZN4); assay: as above
[6] = target: FLAG-tagged full-length Shisa9/CKAMP44 (mouse) (UniProt Q9CZN4); assay: as above

binding [1]: binds
Substance: EGFP-PKCα-WT (from UniProt P17252 1-672) (enzyme)

binding [2]: binds
Substance: FLAG-MAGI1 (from UniProt Q6RHR9-1 1-1471)

binding [3]: binds | binding [4]: binds | binding [5]: binds
Substance: FLAG-PICK1 (from UniProt Q9NRD5 1-415)

binding [1]: binds | binding [6]: binds
Substance: MYC-PICK1 (from UniProt Q9NRD5 1-415)
